# Experimental data reported in the supplement of paper PMC12067093, “Discovery and optimisation of a covalent ligand for TRIM25 and its application to targeted protein ubiquitination” (Chemical Science, 2025).
# The chains behind the UniProt entries cited, without tags or fusion partners. Where a name states a change or a piece, a line headed by the entry shows the natural chain unless it says otherwise.
# UniProt P10586, whole entry, looked up: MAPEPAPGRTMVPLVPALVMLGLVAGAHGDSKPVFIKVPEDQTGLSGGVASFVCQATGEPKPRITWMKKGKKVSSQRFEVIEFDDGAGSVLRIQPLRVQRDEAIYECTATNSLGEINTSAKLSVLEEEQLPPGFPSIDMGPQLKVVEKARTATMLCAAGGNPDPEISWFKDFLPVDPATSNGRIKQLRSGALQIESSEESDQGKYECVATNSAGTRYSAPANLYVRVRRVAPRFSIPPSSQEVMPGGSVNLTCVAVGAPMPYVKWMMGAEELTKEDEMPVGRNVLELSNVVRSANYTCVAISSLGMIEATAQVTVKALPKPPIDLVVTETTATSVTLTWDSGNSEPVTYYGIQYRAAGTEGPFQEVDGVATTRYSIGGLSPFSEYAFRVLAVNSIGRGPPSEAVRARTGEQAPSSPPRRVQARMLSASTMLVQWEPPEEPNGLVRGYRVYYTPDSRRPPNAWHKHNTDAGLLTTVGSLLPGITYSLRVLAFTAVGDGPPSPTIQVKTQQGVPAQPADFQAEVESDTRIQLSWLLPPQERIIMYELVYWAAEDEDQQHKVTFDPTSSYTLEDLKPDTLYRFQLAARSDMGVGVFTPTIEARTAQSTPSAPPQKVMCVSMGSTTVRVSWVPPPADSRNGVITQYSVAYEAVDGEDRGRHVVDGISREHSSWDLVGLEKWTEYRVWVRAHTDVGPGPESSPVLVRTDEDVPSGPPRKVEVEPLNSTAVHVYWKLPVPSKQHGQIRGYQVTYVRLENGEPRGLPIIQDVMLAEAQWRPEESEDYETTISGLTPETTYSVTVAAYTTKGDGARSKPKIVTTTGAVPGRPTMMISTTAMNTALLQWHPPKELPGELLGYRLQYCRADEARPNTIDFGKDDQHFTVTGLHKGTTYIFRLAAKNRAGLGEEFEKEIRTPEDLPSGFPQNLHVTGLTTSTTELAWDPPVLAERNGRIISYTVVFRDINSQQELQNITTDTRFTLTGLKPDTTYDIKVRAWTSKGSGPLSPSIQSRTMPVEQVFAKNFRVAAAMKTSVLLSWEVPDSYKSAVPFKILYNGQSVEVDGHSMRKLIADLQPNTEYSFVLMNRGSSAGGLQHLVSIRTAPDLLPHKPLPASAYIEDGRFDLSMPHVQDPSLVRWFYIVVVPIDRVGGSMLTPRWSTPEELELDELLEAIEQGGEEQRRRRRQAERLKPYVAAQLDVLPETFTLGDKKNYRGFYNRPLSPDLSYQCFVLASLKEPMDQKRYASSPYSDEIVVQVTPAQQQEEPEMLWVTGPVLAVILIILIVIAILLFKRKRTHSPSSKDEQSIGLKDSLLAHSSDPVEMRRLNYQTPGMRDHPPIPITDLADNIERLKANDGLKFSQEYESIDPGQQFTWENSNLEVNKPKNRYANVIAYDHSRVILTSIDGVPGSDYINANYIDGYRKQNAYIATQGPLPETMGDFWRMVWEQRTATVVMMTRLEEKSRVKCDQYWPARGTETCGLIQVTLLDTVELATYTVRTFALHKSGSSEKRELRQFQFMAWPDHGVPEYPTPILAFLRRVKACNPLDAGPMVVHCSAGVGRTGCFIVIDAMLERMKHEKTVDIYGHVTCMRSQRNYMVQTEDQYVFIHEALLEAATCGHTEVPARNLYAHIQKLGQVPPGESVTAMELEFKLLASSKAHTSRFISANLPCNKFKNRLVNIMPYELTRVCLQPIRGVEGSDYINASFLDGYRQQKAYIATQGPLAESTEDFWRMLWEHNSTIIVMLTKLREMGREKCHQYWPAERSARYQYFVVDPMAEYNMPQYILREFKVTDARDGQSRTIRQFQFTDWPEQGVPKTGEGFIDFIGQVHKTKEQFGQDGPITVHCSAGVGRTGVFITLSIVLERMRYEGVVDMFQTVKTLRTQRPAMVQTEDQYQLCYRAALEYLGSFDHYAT
# UniProt P28062: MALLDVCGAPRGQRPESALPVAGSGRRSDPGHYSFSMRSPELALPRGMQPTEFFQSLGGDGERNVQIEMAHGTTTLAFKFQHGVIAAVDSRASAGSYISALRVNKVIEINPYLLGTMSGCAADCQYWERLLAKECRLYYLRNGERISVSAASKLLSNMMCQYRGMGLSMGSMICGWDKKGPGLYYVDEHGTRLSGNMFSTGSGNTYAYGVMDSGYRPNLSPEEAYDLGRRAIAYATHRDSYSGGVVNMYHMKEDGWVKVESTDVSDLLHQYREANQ
# UniProt O75832: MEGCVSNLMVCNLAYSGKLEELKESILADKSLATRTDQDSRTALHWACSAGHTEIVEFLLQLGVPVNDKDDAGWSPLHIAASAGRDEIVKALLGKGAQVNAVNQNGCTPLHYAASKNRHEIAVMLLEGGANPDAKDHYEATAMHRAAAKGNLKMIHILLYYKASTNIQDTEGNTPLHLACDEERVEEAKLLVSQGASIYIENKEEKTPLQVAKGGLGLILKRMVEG
# UniProt Q8WUK0: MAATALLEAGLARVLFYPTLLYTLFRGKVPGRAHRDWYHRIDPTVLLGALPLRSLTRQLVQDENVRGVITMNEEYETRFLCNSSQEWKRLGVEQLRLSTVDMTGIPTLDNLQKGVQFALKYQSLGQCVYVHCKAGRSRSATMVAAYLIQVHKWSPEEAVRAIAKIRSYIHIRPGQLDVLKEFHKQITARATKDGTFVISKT
# UniProt Q9UHX1: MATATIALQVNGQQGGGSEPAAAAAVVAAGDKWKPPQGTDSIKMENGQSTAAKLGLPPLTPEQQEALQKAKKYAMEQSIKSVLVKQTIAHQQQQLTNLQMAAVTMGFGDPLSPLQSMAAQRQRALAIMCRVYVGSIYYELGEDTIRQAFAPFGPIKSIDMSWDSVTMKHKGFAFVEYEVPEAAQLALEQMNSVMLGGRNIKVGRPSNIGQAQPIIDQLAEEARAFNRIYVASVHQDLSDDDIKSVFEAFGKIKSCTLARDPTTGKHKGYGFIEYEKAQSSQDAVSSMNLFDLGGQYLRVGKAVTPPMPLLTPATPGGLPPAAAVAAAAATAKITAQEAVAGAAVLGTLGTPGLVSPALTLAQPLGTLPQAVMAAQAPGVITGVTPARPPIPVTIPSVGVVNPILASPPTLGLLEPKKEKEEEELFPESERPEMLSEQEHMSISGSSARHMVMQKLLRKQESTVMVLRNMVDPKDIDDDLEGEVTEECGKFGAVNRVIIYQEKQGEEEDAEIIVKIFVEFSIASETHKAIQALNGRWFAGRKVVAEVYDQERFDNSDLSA
# UniProt Q8NDX1: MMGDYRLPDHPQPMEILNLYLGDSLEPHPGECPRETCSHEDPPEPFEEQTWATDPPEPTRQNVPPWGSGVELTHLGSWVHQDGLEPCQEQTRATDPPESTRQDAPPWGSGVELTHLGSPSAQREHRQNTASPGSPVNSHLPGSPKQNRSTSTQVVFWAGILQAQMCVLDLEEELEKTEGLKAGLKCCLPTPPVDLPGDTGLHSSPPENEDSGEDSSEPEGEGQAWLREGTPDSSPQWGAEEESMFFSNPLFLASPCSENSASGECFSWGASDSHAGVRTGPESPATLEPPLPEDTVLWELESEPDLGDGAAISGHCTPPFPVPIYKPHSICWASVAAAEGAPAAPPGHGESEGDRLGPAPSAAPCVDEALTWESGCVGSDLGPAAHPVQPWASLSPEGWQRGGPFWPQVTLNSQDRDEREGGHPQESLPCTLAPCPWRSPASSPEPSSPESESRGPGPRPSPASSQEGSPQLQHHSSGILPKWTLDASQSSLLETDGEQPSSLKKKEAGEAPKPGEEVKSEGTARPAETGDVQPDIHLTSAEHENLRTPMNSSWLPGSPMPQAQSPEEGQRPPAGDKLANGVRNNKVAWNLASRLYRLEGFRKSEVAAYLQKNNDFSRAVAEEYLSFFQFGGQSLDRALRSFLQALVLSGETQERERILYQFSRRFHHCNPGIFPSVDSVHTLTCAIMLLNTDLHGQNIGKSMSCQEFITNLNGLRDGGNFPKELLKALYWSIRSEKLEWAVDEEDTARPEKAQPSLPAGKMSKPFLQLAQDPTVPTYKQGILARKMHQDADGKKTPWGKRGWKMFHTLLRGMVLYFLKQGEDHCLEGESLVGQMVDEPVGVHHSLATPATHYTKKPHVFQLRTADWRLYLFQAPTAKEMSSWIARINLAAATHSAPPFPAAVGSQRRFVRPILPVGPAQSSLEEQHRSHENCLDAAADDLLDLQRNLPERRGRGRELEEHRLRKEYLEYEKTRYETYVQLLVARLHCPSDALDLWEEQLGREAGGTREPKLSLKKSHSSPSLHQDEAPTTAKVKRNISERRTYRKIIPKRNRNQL
# UniProt P18031: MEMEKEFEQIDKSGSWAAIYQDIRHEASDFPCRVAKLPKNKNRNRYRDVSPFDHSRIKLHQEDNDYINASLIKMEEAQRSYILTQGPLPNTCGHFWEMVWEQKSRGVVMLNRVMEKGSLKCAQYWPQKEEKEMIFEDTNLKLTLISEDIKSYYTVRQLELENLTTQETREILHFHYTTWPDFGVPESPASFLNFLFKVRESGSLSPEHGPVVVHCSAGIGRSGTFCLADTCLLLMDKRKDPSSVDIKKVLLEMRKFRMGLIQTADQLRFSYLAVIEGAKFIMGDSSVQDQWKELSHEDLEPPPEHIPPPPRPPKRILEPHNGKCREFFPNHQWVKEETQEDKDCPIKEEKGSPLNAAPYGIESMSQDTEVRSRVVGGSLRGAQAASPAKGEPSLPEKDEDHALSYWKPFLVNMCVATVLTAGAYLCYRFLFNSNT
# UniProt Q15185: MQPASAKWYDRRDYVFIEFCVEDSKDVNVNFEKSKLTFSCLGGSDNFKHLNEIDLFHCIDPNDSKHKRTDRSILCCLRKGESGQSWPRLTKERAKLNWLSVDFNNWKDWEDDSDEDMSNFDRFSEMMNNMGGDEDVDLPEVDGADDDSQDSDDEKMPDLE
# UniProt P17980, whole entry, looked up: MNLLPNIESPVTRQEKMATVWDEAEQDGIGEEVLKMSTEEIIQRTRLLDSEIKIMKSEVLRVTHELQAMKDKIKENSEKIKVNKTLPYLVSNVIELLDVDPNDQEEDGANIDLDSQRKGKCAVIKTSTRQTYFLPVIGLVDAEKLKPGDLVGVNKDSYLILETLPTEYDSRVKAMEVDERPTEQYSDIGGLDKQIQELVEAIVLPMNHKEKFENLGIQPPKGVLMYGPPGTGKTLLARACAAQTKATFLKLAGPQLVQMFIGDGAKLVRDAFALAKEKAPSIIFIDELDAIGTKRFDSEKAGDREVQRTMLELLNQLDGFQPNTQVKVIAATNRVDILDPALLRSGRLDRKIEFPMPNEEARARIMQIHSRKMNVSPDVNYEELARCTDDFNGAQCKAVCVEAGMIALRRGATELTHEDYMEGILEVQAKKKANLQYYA
# UniProt Q05209: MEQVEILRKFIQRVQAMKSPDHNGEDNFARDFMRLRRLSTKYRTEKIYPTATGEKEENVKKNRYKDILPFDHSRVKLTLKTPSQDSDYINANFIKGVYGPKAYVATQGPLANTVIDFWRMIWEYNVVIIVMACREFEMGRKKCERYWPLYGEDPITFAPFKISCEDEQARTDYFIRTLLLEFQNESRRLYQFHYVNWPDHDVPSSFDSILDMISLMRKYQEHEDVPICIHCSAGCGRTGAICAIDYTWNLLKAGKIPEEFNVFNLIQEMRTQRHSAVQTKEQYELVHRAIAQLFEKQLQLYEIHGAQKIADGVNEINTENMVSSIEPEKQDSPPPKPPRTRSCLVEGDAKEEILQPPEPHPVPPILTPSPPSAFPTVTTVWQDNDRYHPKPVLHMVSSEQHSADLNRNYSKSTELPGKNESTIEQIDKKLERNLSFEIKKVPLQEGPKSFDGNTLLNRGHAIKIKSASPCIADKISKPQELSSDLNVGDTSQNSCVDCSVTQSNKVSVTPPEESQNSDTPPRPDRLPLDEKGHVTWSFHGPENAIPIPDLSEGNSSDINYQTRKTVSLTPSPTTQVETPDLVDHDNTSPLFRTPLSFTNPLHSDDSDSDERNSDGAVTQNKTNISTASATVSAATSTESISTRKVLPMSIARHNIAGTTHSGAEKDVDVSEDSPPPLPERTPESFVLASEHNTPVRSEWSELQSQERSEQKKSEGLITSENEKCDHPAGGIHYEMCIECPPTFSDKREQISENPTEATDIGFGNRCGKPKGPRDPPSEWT
# UniProt Q969U7: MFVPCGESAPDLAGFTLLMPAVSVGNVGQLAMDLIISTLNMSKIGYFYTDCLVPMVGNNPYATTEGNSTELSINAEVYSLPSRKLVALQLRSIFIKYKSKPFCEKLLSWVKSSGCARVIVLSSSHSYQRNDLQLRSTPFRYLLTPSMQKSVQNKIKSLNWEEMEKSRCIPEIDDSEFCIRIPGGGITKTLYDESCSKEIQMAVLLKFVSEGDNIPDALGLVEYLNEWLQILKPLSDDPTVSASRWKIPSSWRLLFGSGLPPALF
# UniProt P25786: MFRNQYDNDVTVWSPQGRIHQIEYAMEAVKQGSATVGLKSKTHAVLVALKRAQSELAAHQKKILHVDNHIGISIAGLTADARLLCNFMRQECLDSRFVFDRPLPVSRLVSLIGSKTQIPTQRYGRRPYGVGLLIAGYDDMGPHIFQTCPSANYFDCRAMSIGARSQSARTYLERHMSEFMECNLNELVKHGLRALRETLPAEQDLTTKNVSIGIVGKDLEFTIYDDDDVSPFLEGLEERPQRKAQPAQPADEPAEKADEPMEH
# The other results are listed elsewhere or left out.
# Compound: CC1Cc2ccccc2N1C(=O)C1CCCN(C1)C(=O)CCl (mixture of isomers) [TRIM25 ligand 11 (diastereomer mixture)]
# Assay: probe-labelled cysteine peptide fold change vs DMSO (competition) (log2 fold change); higher = less target engagement (more negative = stronger competition)
# Conditions: 10 µM; THP-1; incubation time: 4 h
# 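Also: competitive chemoproteomic profiling in live THP-1 cells with an iodoacetamide desthiobiotin (IA-DTB) probe, comparing probe-labelled peptide intensities in compound-treated cells against DMSO-treated controls.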
row,Target,probe-labelled cysteine peptide fold change
1,PTPRF_P10586_107_VQRDEAIYECTATNSLGEINTSAK (UniProt P10586),-0.0297
2,PTPRF_P10586_156_TATMLCAAGGNPDPEISWFK (UniProt P10586),-0.00322
3,PTPA_Q15257_199+200_IDYGTGHEAAFAAFLCCLCK (UniProt Q15257),-0.139
4,PSPC1_Q8WXF1_216_CGDGAFLLTTTPR (UniProt Q8WXF1),-0.0317
5,PSMB8_P28062_124_VIEINPYLLGTMSGCAADCQYWER (UniProt P28062),0.0314
6,PSMD10_O75832_48_TALHWACSAGHTEIVEFLLQLGVPVNDK (UniProt O75832),0.037
7,PSIP1_O75475_373_CIEALDELASLQVTMQQAQK (UniProt O75475),0.279
8,PTPA_Q15257_103_AGHCAPSEAIEK (UniProt Q15257),0.00322
9,PSMB1_P20618_82_TVIGCSGFHGDCLTLTK (UniProt P20618),0.0679
10,PTAR1_Q7Z6K3_314_INLPHLLEEEVEFSTDLIDSYPGHETLWCHR (UniProt Q7Z6K3),-0.204
11,PTPMT1_Q8WUK0_81_FLCNSSQEWK (UniProt Q8WUK0),0.225
12,PUF60_Q9UHX1_129_ALAIMCR (UniProt Q9UHX1),0.156
13,PSMA4_P25789_163_ATCIGNNSAAAVSMLK (UniProt P25789),-0.152
14,PSMC5_P62195_363_GVCTEAGMYALR (UniProt P62195),-0.0163
15,PTPRF_P10586_207_YECVATNSAGTR (UniProt P10586),0.266
16,PSD4_Q8NDX1_988_LHCPSDALDLWEEQLGR (UniProt Q8NDX1),0.188
17,PTPN1_P18031_324_CREFFPNHQWVK (UniProt P18031),-0.209
18,PTGES3_Q15185_76_SILCCLR (UniProt Q15185),-0.0218
19,PSMC3_P17980_240_ACAAQTK (UniProt P17980),-0.0602

row,Target,probe-labelled cysteine peptide fold change
1,PTPN12_Q05209_164_ISCEDEQAR (UniProt Q05209),0.112
2,PTGFRN_Q9P2B2_169_CTAASASPLHTHLALLWEVHR (UniProt Q9P2B2),-0.164
3,PSMB1_P20618_224_ICIVTK (UniProt P20618),-0.0748
4,PTPN12_Q05209_242_TGAICAIDYTWNLLK (UniProt Q05209),0.0567
5,PSMD2_Q13200_251_CALGVFR (UniProt Q13200),-0.127
6,PSMB7_Q99436_87_IHFISPNIYCCGAGTAADTDMTTQLISSNLELHSLSTGR (UniProt Q99436),0.0709
7,PSMD1_Q99460_659+660_YGAAMALGICCAGTGNK (UniProt Q99460),0.198
8,PTGES3_Q15185_40_LTFSCLGGSDNFK (UniProt Q15185),0.0949
9,PTPN12_Q05209_235_YQEHEDVPICIHCSAGCGR (UniProt Q05209),0.28
10,PSMD2_Q13200_616_VQQLLHICSEHFDSK (UniProt Q13200),0.236
11,PSMD1_Q99460_633_TPEQCPSVVSLLSESYNPHVR (UniProt Q99460),0.0411
12,PTPN6_P29350_382_AYGPYSVTNCGEHDTTEYK (UniProt P29350),0.0863
13,PSMD1_Q99460_659_YGAAMALGICCAGTGNK (UniProt Q99460),0.034
14,PSMG2_Q969U7_103_SKPFCEK (UniProt Q969U7),-0.0664
15,PSMC3_P17980_400_AVCVEAGMIALR (UniProt P17980),-0.07
16,PSMA1_P25786_92_QECLDSR (UniProt P25786),-0.0114
17,PTK2B_Q14289_677_FTELVCSLSDVYQMEK (UniProt Q14289),0.0957
18,PSMB1_P20618_89_TVIGCSGFHGDCLTLTK (UniProt P20618),0.0959
19,PSMD10_O75832_107_GAQVNAVNQNGCTPLHYAASK (UniProt O75832),0.0308

# Same assay, conditions: 50 µM; THP-1; incubation time: 4 h
row,Target,probe-labelled cysteine peptide fold change
1,PTPRF_P10586_107_VQRDEAIYECTATNSLGEINTSAK (UniProt P10586),-0.0226
2,PTPRF_P10586_156_TATMLCAAGGNPDPEISWFK (UniProt P10586),0.138
3,PTPA_Q15257_199+200_IDYGTGHEAAFAAFLCCLCK (UniProt Q15257),-0.0286
4,PSPC1_Q8WXF1_216_CGDGAFLLTTTPR (UniProt Q8WXF1),0.033
5,PSMB8_P28062_124_VIEINPYLLGTMSGCAADCQYWER (UniProt P28062),-0.195
6,PSMD10_O75832_48_TALHWACSAGHTEIVEFLLQLGVPVNDK (UniProt O75832),0.0505
7,PSIP1_O75475_373_CIEALDELASLQVTMQQAQK (UniProt O75475),0.141
8,PTPA_Q15257_103_AGHCAPSEAIEK (UniProt Q15257),-0.128
9,PSMB1_P20618_82_TVIGCSGFHGDCLTLTK (UniProt P20618),0.0527
10,PTAR1_Q7Z6K3_314_INLPHLLEEEVEFSTDLIDSYPGHETLWCHR (UniProt Q7Z6K3),-0.291
11,PTPMT1_Q8WUK0_81_FLCNSSQEWK (UniProt Q8WUK0),0.115
12,PUF60_Q9UHX1_129_ALAIMCR (UniProt Q9UHX1),0.248
13,PSMA4_P25789_163_ATCIGNNSAAAVSMLK (UniProt P25789),-0.0405
14,PSMC5_P62195_363_GVCTEAGMYALR (UniProt P62195),0.0167
15,PTPRF_P10586_207_YECVATNSAGTR (UniProt P10586),0.251
16,PSD4_Q8NDX1_988_LHCPSDALDLWEEQLGR (UniProt Q8NDX1),0.0373
17,PTPN1_P18031_324_CREFFPNHQWVK (UniProt P18031),-0.0639
18,PTGES3_Q15185_76_SILCCLR (UniProt Q15185),-0.119
19,PSMC3_P17980_240_ACAAQTK (UniProt P17980),-0.0365

row,Target,probe-labelled cysteine peptide fold change
1,PTPN12_Q05209_164_ISCEDEQAR (UniProt Q05209),0.071
2,PTGFRN_Q9P2B2_169_CTAASASPLHTHLALLWEVHR (UniProt Q9P2B2),-0.0696
3,PSMB1_P20618_224_ICIVTK (UniProt P20618),0.0865
4,PTPN12_Q05209_242_TGAICAIDYTWNLLK (UniProt Q05209),0.124
5,PSMD2_Q13200_251_CALGVFR (UniProt Q13200),0.217
6,PSMB7_Q99436_87_IHFISPNIYCCGAGTAADTDMTTQLISSNLELHSLSTGR (UniProt Q99436),0.0311
7,PSMD1_Q99460_659+660_YGAAMALGICCAGTGNK (UniProt Q99460),0.149
8,PTGES3_Q15185_40_LTFSCLGGSDNFK (UniProt Q15185),0.0777
9,PTPN12_Q05209_235_YQEHEDVPICIHCSAGCGR (UniProt Q05209),-0.07
10,PSMD2_Q13200_616_VQQLLHICSEHFDSK (UniProt Q13200),0.16
11,PSMD1_Q99460_633_TPEQCPSVVSLLSESYNPHVR (UniProt Q99460),-0.088
12,PTPN6_P29350_382_AYGPYSVTNCGEHDTTEYK (UniProt P29350),-0.0754
13,PSMD1_Q99460_659_YGAAMALGICCAGTGNK (UniProt Q99460),0.105
14,PSMG2_Q969U7_103_SKPFCEK (UniProt Q969U7),0.0674
15,PSMC3_P17980_400_AVCVEAGMIALR (UniProt P17980),-0.0442
16,PSMA1_P25786_92_QECLDSR (UniProt P25786),-0.0536
17,PTK2B_Q14289_677_FTELVCSLSDVYQMEK (UniProt Q14289),-0.0463
18,PSMB1_P20618_89_TVIGCSGFHGDCLTLTK (UniProt P20618),0.02
19,PSMD10_O75832_107_GAQVNAVNQNGCTPLHYAASK (UniProt O75832),0.105
